Measured values taken from publication PMC3630112.
These are yes or no findings as the source states them, for the method shown. In cells and extracts the contact can be indirect. Some entries that bind do so weakly or less than the wild type.

Target: Flag-tagged Dcp2 (HEK 293T) (mouse) (UniProt Q9CYC6)
Assay: co-IP; GFP-tagged Dcp1a, HA-tagged CA or DN MAPKK1 and Flag-tagged Dcp2 co-expressed in HEK 293T cells, with or without U0126; IP with M2 beads; western blot with anti-GFP, anti-Flag, anti-Edc4

B1: endogenous Edc4 (HEK 293T cells) (protein, UniProt Q6P2E9 1-1401)
chain: MASCASIDIEDATQHLRDILKLDRPAGGPSAESPRPSSAYNGDLNGLLVPDPLCSGDSTSANKTGLRTMPPINLQEKQVICLSGDDSSTCIGILAKEVEIVASSDSSISSKARGSNKVKIQPVAKYDWEQKYYYGNLIAVSNSFLAYAIRAANNGSAMVRVISVSTSERTLLKGFTGSVADLAFAHLNSPQLACLDEAGNLFVWRLALVNGKIQEEILVHIRQPEGTPLNHFRRIIWCPFIPEESEDCCEESSPTVALLHEDRAEVWDLDMLRSSHSTWPVDVSQIKQGFIVVKGHSTCLSEGALSPDGTVLATASHDGYVKFWQIYIEGQDEPRCLHEWKPHDGRPLSCLLFCDNHKKQDPDVPFWRFLITGADQNRELKMWCTVSWTCLQTIRFSPDIFSSVSVPPSLKVCLDLSAEYLILSDVQRKVLYVMELLQNQEEGHACFSSISEFLLTHPVLSFGIQVVSRCRLRHTEVLPAEEENDSLGADGTHGAGAMESAAGVLIKLFCVHTKALQDVQIRFQPQLNPDVVAPLPTHTAHEDFTFGESRPELGSEGLGSAAHGSQPDLRRIVELPAPADFLSLSSETKPKLMTPDAFMTPSASLQQITASPSSSSSGSSSSSSSSSSSLTAVSAMSSTSAVDPSLTRPPEELTLSPKLQLDGSLTMSSSGSLQASPRGLLPGLLPAPADKLTPKGPGQVPTATSALSLELQEVEPLGLPQASPSRTRSPDVISSASTALSQDIPEIASEALSRGFGSSAPEGLEPDSMASAASALHLLSPRPRPGPELGPQLGLDGGPGDGDRHNTPSLLEAALTQEASTPDSQVWPTAPDITRETCSTLAESPRNGLQEKHKSLAFHRPPYHLLQQRDSQDASAEQSDHDDEVASLASASGGFGTKVPAPRLPAKDWKTKGSPRTSPKLKRKSKKDDGDAAMGSRLTEHQVAEPPEDWPALIWQQQRELAELRHSQEELLQRLCTQLEGLQSTVTGHVERALETRHEQEQRRLERALAEGQQRGGQLQEQLTQQLSQALSSAVAGRLERSIRDEIKKTVPPCVSRSLEPMAGQLSNSVATKLTAVEGSMKENISKLLKSKNLTDAIARAAADTLQGPMQAAYREAFQSVVLPAFEKSCQAMFQQINDSFRLGTQEYLQQLESHMKSRKAREQEAREPVLAQLRGLVSTLQSATEQMAATVAGSVRAEVQHQLHVAVGSLQESILAQVQRIVKGEVSVALKEQQAAVTSSIMQAMRSAAGTPVPSAHLDCQAQQAHILQLLQQGHLNQAFQQALTAADLNLVLYVCETVDPAQVFGQPPCPLSQPVLLSLIQQLASDLGTRTDLKLSYLEEAVMHLDHSDPITRDHMGSVMAQVRQKLFQFLQAEPHNSLGKAARRLSLMLHGLVTPSLP
Question: With B1 as the binder, how does the binding read?
Answer: The binding was “binds”.
